For assay [1], the target named is T1, eGFP-SENYADAS (Escherichia coli).
T1 sequence: SENYADAS
In words: MST; 50 nM eGFP-degron (eGFP fluorescence), SspB titrated 3.72 nM to 122 μM; 25 mM Hepes pH 7.6, 200 mM KCl, 5 mM MgCl2, 10% glycerol, 0.05% Tween 20; 15 min at RT; measured at 20 °C, Monolith NT.115; both purified.

Assay [2] addresses T2, eGFP-SENYALAA (Escherichia coli).
T2 sequence: SENYALAA
Described as above.

For assay [3], the target named is T1, eGFP-SENYADAS (Escherichia coli). Briefly: native gel or EMSA; 8 μM eGFP-degron and 8 μM SspB2 mixed, about 10 min at RT in 50 mM Tris-HCl pH 7.5, 200 mM NaCl, 5 mM MgCl2; 15% native polyacrylamide gel in Tris/borate buffer; SimplyBlue Safe Stain; both purified. For orientation: Mobility shift assays separate free from complexed probe on a gel.
Assay [4] addresses T2, eGFP-SENYALAA (Escherichia coli). The description is as above.

These are yes or no findings as the source states them, for the method shown. Tags and fused reporters may be left off the sequences shown.

B1: SspB (natural protein, Escherichia coli, UniProt P0AFZ3 1-165, looked up)
chain: MDLSQLTPRRPYLLRAFYEWLLDNQLTPHLVVDVTLPGVQVPMEYARDGQIVLNIAPRAVGNLELANDEVRFNARFGGIPRQVSVPLAAVLAIYARENGAGTMFEPEAAYDEDTSIMNDEEASADNETVMSVIDGDKPDHDDDTHPDDEPPQPPRGGRPALRVVK
As for B1, the binding result in assay [1] is “no binding (tested: SspB up to 122 μM)”; in assay [2] it was “no binding (tested: SspB up to 122 μM)”; in assay [3] it was “no binding (tested: 8 μM each)”; in assay [4] it was “no binding (tested: 8 μM each)”.

The values above are taken from publication PMC8512704, “A Uniform Benchmark for Testing SsrA-Derived Degrons in the Escherichia coli ClpXP Degradation Pathway” (Molecules, 2021).
